The record followed here is article PMC4792602.

Sequences of proteins named here, by UniProt entry; tags and fusion partners are left off. Residues count along the entry.
UniProt Q9NR12: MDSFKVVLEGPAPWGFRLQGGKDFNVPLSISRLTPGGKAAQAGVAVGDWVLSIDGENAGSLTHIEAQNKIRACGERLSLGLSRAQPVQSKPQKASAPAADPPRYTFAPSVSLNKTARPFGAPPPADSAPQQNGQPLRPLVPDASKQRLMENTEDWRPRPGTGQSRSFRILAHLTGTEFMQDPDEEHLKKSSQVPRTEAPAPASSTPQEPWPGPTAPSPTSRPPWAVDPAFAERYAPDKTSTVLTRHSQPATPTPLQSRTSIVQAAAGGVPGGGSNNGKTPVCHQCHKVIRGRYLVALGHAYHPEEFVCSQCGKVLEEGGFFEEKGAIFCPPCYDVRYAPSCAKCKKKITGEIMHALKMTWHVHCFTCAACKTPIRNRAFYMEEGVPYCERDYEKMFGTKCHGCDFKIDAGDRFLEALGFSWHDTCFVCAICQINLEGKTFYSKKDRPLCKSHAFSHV
UniProt P17066: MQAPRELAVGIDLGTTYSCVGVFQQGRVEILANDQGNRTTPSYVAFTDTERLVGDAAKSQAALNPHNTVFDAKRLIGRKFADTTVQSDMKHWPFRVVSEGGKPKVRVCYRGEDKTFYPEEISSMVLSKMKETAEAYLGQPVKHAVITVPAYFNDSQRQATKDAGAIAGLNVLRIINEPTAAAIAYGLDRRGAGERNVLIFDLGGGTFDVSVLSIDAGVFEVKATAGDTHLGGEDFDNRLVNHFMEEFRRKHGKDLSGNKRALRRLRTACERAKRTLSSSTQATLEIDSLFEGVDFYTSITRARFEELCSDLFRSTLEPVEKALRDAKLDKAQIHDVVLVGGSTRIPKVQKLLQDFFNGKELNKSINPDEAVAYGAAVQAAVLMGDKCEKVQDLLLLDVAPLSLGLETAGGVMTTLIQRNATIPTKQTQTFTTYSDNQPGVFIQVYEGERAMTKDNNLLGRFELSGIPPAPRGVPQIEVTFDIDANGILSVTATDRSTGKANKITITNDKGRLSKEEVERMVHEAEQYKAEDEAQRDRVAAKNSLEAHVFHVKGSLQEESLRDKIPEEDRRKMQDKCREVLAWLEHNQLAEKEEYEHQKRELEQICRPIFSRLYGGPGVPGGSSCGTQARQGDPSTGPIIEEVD
UniProt Q9BQE3: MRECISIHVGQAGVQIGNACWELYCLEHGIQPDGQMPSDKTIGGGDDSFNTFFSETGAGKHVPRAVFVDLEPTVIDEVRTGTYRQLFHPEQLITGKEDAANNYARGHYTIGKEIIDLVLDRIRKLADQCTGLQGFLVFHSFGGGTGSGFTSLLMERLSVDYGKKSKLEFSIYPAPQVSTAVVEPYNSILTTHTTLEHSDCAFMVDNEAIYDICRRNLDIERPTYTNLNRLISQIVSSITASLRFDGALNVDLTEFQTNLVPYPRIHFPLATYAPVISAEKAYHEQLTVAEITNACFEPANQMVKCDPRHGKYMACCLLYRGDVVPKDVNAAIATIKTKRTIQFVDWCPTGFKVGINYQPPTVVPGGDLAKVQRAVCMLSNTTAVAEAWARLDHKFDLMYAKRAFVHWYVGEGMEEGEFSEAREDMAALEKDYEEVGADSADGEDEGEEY
UniProt P25705, residues 44-553: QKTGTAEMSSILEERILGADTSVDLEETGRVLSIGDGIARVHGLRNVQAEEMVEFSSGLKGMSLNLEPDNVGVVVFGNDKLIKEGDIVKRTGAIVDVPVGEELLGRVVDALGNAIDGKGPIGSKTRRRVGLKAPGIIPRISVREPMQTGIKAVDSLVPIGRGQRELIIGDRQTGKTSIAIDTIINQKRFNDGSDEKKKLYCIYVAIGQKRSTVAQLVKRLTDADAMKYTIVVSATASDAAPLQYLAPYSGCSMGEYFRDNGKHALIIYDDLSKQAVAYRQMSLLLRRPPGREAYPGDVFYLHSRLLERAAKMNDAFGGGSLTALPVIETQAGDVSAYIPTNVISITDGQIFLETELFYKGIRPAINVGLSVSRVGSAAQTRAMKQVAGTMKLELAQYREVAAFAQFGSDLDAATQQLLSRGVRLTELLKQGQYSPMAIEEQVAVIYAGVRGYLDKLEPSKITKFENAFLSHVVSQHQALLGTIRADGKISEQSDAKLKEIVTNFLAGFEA
UniProt P11021, residues 19-654: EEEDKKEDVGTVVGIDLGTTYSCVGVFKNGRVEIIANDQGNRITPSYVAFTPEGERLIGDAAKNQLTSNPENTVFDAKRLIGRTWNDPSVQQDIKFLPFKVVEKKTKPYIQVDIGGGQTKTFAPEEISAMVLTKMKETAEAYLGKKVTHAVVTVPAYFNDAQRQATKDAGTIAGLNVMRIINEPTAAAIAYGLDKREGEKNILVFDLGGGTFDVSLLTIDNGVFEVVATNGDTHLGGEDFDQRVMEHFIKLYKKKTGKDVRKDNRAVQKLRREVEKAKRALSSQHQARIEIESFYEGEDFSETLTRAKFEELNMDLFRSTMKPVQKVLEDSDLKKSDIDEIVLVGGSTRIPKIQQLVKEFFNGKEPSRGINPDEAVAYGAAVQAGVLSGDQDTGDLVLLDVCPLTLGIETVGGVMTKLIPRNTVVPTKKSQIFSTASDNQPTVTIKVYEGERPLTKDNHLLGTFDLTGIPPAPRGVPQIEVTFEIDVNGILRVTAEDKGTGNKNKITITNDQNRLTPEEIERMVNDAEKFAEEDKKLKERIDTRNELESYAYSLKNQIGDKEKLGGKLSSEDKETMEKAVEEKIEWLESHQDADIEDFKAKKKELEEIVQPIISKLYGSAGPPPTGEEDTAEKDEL
UniProt P38646, residues 47-679: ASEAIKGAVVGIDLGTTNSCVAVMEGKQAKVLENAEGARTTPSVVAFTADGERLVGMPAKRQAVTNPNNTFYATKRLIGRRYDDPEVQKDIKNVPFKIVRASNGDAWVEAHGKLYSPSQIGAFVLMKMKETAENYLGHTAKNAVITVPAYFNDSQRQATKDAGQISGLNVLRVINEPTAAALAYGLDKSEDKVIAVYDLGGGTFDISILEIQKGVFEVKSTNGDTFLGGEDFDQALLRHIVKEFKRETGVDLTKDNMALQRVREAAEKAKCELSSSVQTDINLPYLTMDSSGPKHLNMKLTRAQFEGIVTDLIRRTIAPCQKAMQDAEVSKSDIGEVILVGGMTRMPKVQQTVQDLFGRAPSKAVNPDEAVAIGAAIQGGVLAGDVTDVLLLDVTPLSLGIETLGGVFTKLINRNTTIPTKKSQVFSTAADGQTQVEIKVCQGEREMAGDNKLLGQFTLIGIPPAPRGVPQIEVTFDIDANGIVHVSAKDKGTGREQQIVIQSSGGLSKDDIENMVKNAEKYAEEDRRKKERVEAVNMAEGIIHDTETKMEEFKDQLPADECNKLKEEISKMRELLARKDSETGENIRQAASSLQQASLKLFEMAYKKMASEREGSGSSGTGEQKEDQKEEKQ
UniProt P68104: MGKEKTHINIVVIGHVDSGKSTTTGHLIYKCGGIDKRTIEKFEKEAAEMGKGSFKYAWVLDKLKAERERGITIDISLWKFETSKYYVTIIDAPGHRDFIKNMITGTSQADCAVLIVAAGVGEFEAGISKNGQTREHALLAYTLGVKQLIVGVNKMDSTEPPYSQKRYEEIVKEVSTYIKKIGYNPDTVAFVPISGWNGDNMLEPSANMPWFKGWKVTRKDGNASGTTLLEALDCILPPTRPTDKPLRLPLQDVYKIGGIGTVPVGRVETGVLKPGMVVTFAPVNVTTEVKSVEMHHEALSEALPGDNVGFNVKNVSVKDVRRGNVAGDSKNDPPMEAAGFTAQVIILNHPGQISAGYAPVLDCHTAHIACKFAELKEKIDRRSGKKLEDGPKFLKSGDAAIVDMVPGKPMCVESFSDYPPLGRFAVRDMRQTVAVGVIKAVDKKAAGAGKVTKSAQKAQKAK
UniProt P12235: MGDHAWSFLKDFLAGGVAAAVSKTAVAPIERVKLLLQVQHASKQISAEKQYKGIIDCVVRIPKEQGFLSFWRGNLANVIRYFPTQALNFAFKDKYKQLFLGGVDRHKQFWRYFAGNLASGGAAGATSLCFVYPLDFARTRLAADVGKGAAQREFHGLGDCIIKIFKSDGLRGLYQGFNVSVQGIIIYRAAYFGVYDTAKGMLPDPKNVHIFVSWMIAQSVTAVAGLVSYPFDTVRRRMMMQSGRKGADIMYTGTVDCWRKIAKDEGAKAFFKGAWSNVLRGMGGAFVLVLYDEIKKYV
UniProt P04406: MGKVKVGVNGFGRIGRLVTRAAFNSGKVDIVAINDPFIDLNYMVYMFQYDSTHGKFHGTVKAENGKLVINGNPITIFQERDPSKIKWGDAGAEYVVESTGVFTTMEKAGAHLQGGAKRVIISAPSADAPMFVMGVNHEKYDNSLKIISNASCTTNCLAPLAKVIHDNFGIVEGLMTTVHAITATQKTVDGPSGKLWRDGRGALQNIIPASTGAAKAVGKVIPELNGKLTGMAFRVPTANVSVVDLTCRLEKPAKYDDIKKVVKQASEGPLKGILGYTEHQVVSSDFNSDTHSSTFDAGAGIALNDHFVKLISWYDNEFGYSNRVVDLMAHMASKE
UniProt Q9NY65: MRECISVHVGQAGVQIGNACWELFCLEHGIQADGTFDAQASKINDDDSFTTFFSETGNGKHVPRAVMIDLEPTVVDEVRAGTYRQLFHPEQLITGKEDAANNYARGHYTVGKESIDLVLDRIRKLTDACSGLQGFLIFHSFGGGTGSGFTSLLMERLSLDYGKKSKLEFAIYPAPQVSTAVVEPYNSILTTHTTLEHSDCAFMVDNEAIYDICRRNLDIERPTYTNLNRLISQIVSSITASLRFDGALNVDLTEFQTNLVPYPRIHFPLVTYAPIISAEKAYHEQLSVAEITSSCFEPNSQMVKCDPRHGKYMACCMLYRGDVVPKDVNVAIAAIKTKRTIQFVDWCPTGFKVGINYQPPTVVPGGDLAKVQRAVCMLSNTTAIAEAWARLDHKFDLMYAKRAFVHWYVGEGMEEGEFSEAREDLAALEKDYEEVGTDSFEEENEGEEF
UniProt P11142: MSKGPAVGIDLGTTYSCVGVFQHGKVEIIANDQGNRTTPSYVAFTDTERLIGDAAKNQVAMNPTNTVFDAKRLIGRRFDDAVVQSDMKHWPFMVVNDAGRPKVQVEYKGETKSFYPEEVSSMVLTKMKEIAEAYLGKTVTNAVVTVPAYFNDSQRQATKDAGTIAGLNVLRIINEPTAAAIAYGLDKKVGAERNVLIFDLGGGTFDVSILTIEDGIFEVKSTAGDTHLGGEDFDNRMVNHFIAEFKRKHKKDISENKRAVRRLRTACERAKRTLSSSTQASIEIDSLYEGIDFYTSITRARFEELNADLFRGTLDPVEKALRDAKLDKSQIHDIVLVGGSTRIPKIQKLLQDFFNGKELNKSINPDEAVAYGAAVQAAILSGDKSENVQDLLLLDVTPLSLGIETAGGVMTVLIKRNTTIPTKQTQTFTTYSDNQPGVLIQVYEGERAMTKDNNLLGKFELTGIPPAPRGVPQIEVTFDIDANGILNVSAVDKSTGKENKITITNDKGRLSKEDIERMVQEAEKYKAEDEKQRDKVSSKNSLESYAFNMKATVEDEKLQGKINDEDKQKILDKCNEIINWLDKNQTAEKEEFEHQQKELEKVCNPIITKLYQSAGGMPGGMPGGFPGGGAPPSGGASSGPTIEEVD
UniProt O95816: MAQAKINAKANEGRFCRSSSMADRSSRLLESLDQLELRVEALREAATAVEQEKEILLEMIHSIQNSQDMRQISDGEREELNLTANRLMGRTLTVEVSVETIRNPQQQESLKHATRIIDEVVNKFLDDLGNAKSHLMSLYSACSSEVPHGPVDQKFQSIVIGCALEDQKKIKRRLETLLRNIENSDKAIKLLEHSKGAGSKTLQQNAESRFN
UniProt P07437: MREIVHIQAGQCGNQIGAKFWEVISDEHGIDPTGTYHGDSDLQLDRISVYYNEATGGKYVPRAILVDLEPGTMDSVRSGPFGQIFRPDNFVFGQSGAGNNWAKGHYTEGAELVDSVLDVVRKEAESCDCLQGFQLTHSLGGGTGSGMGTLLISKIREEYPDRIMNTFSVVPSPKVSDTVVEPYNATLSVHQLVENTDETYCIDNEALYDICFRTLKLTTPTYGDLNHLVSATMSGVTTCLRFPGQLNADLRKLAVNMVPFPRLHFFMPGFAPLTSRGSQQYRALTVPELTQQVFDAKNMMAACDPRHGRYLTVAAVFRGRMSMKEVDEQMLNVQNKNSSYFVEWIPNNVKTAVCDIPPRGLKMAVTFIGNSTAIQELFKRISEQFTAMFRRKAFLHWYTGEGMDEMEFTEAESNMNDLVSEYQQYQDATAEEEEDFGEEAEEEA
UniProt Q99816: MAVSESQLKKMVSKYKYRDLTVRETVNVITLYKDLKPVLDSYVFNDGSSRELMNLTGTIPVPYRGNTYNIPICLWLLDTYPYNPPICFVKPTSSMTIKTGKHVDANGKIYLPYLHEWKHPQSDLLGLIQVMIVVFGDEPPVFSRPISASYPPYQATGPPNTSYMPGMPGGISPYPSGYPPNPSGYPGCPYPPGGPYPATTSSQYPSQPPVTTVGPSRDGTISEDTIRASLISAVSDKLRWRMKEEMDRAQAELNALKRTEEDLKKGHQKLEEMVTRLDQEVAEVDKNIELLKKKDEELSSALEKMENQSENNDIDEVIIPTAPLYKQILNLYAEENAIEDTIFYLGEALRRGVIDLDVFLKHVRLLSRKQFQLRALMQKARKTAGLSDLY

Sequences and labels used below:
T1: Flag-hemagglutinin (HA)-tagged transglutaminase type 2 (human) (UniProt P21980)
T1 sequence: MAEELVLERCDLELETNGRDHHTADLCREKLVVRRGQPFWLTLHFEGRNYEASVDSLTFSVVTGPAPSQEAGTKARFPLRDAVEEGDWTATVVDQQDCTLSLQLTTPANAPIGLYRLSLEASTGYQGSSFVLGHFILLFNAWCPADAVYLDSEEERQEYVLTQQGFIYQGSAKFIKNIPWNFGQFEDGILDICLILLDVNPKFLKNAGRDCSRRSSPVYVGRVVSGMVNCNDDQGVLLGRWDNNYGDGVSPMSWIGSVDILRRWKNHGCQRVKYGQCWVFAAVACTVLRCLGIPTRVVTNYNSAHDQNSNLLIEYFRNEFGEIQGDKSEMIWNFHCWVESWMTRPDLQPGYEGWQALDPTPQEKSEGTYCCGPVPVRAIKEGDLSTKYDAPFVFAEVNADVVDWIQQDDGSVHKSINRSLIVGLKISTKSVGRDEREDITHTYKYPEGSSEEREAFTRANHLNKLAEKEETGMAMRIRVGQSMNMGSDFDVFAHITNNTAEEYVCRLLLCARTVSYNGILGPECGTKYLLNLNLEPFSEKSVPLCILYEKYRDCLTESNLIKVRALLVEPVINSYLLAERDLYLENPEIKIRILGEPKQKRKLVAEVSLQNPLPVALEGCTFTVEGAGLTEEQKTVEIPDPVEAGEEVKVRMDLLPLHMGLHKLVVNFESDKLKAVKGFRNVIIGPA

B1: DnaJ (Hsp40) homolog, subfamily C, member 7 [Homo sapiens] (protein, UniProt Q99615 1-494)
chain: MAAAAECDVVMAATEPELLDDQEAKREAETFKEQGNAYYAKKDYNEAYNYYTKAIDMCPKNASYYGNRAATLMMLGRFREALGDAQQSVRLDDSFVRGHLREGKCHLSLGNAMAACRSFQRALELDHKNAQAQQEFKNANAVMEYEKIAETDFEKRDFRKVVFCMDRALEFAPACHRFKILKAECLAMLGRYPEAQSVASDILRMDSTNADALYVRGLCLYYEDCIEKAVQFFVQALRMAPDHEKACIACRNAKALKAKKEDGNKAFKEGNYKLAYELYTEALGIDPNNIKTNAKLYCNRGTVNSKLRKLDDAIEDCTNAVKLDDTYIKAYLRRAQCYMDTEQYEEAVRDYEKVYQTEKTKEHKQLLKNAQLELKKSKRKDYYKILGVDKNASEDEIKKAYRKRALMHHPDRHSGASAEVQKEEEKKFKEVGEAFTILSDPKKKTRYDSGQDLDEEGMNMGDFDPNNIFKAFFGGPGGFSFEASGPGNFFFQFG
B2: solute carrier family 25 (mitochondrial carrier; adenine nucleotide translocator), member 6 [Homo sapiens] (protein, UniProt P12236 1-298)
chain: MTEQAISFAKDFLAGGIAAAISKTAVAPIERVKLLLQVQHASKQIAADKQYKGIVDCIVRIPKEQGVLSFWRGNLANVIRYFPTQALNFAFKDKYKQIFLGGVDKHTQFWRYFAGNLASGGAAGATSLCFVYPLDFARTRLAADVGKSGTEREFRGLGDCLVKITKSDGIRGLYQGFSVSVQGIIIYRAAYFGVYDTAKGMLPDPKNTHIVVSWMIAQTVTAVAGVVSYPFDTVRRRMMMQSGRKGADIMYTGTVDCWRKIFRDEGGKAFFKGAWSNVLRGMGGAFVLVLYDELKKVI

These are yes or no findings as the source states them, for the method shown. Binding seen in cells or lysates may run through a third protein. Here binding means that the protein was enriched with, or labelled near, the bait; the list need not be complete. Sequences can lack the tags named with a protein.

The target in the assay is T1, Flag-hemagglutinin (HA)-tagged transglutaminase type 2 (human). The assay can be described thus: affinity purification with mass spectrometry; tandem affinity purification (Flag agarose, Flag peptide elution, then HA agarose, glycine elution) of Flag-HA-TG2 from 2fTGH lysates (10 mM Tris, 50 mM NaCl, 10% glycerol, 0.5% NP40); cells at steady state or starved for 2 h (autophagy); HPLC and MALDI TOF/TOF.
With “stress-induced-phosphoprotein 1 (Hsp70/Hsp90-organizing protein) [Homo sapiens] (from UniProt P31948 1-543)”, the binding result was “binds”.

Turning to “enigma protein isoform 1 [Homo sapiens] (from UniProt Q9NR12 1-457)”, the binding result is listed as “binds”.

As for “dnaK-type molecular chaperone HSPA6 - human (from UniProt P17066 1-643)”, the binding result is “binds”.

In the case of Tubulin, beta 2 [Homo sapiens] (human), the binding result is “binds”.

In the case of “DnaJ protein homolog [Homo sapiens] (from UniProt P31689 1-397)”, the binding entry was “binds”.

As for “Tubulin alpha 6 [Homo sapiens] (from UniProt Q9BQE3 1-449)”, the binding result is on record as “binds”.

Consider “Similar to ATP synthase, H+ transporting, mitochondrial F1 complex, alpha subunit, isoform 1 (from UniProt P25705 44-553)”, for which the binding result is listed as “binds”.

Consider “BiP protein [Homo sapiens] (from UniProt P11021 19-654)”, for which the binding entry was “binds”.

Take “heat shock 70kDa protein 9B precursor [Homo sapiens] (from UniProt P38646 47-679)”: the binding result is “binds”.

Take “EEF1A1 protein [Homo sapiens] (from UniProt P68104 1-462)”: the binding result is recorded as “binds”.

With “solute carrier family 25 (mitochondrial carrier; adenine nucleotide translocator), member 4 [Homo sapiens] (from UniProt P12235 1-298)”, the binding entry was “binds”.

In the case of “glyceraldehyde-3-phosphate dehydrogenase [Homo sapiens] (from UniProt P04406 1-335) (enzyme)”, the binding entry was “binds”.

With tubulin alpha-1 chain - human, the binding entry was “binds”.

As for “TUBA8 [Homo sapiens] (from UniProt Q9NY65 1-449)”, the binding result was “binds”.

For Hsc70 (from UniProt P11142 1-646), the binding entry is “binds”.

As for “BAG2 [Homo sapiens] (from UniProt O95816 1-211)”, the binding result was “binds”.

As to “TUBB [Homo sapiens] (from UniProt P07437 1-444)”, the binding entry was “binds”.

On to “enigma - human (from UniProt Q9NR12 1-457)”, for which the binding entry is “binds”.

Turning to beta-tubulin 4Q [Homo sapiens] (human), the binding entry was “binds”.

On to tubulin beta chain - human, for which the binding result was “binds”.

For the molecule TSG101 (from UniProt Q99816 1-390), the binding result was “binds”.

For “ADP.ATP translocase (human (endogenous in 2fTGH))”, the binding entry is recorded as “binds”.

With “tubulin beta (human (endogenous in 2fTGH))”, the binding entry was “binds”.

For the molecule B1, the binding result is reported as “binds”.

Regarding B2, the binding entry is given as “binds”.
